We go through two molecules from US20110020218A1.

By UniProt entry, the sequences of proteins in these tests, tags left out.
UniProt P61073: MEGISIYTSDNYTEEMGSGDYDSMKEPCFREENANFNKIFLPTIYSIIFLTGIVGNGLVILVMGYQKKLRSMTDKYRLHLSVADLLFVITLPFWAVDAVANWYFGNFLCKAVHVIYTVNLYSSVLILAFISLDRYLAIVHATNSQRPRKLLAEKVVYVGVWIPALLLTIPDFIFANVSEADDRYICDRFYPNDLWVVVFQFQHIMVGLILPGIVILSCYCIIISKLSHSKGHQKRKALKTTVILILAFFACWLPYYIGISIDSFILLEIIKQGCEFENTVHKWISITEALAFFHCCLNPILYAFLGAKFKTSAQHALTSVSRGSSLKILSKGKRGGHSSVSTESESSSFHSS

For assay [1], the target named is human CXCR4 receptor (wild type) (human) (UniProt P61073). The experiment in a line: immunohistochemistry, 50 µg/ml, RAMOS and KARPAS299 xenograft tumor sections (formalin or Glyo-fixx fixed).
Assay [2] has the same target. Kind of assay: FACS on NIH3T3-hCXCR4 transfected cells.
Assay [3] shares this target. Kind of assay: flow cytometry competition with biotinylated murine 515H7 on CXCR4 transfected NIH3T3 cells.

Results are given in words; binding and its absence hold for the method and conditions named. Some results given as binding are weak or reduced against the parent protein; the word gives no strength.

B1: anti-CXCR4 Mab 515H7 (antibody, V domains shown)
VH: EVNLVESGGGLVQPGGSLRLSCATSGFTFTDNYMSWVRQPPGKALEWLGFIRNKANGYTTDYSASVRGRFTISRDNSQSILYLQMNALRAEDSATYYCARDVGSNYFDYWGQGTTLTVSS
VL: DIVMSQSPSSLAVSAGEKVTMSCKSSQSLFNSRTRKNYLAWYQQKPGQSPKLLIYWASARDSGVPARFTGSGSETYFTLTISRVQAEDLAVYYCMQSFNLRTFGGGTKLEIK
Take B1: the binding result in assay [1] and in assay [2] was “binds” each time.

B2: hz515H7 VH2 combined with the chimeric VL (cVL) (antibody, human IgG1, kappa, V domains shown)
VH: EVNLVESGGGLVQPGRSLRLSCTASGFTFTDNYMSWVRQAPGKGLEWLGFIRNKANGYTTDYAASVRGRFTISRDNSKSILYLQMNALRTEDTAVYYCARDVGSNYFDYWGQGTLVTVSS
VL: DIVMSQSPSSLAVSAGEKVTMSCKSSQSLFNSRTRKNYLAWYQQKPGQSPKLLIYWASARDSGVPARFTGSGSETYFTLTISRVQAEDLAVYYCMQSFNLRTFGGGTKLEIKR
For the molecule B2, the binding entry in assay [3] is recorded as “binds”.
